From patent publication US12618835B2 (Kansas State University Research Foundation, priority 2021, dated 2026)

Test: general procedure: Fmoc solid-phase peptide synthesis; H-Ala-2-chlorotrityl resin (1% DVB, 100-200 mesh); HBTU/DIPEA; HATU for ferrocene coupling
Settings: late stage modification step

Work on “H2N-(CH2)4-CO-Pro-Leu-Ala-Phe-Val-Ala-NH-CH2-Fc (PLAFVA; N-terminal aminopentanoyl; C-terminal aminomethylferrocene; Synthetic substrate peptide)” yielded a step yield of 86% yield.
